# Tested on: MDA-MB-231 cells
# Assay: Lucifer yellow uptake (hemichannel opening)
# Type: cell-based, human
# Settings: short-term treatment (15 minutes, 10^−6 M)
# Experimental: Lucifer yellow uptake. To investigate the possibility that bisphosphonate-induced hemichannel opening mediates the effects of these drugs also in breast cancer cells Lucifer yellow uptake was studied in MDA-MB-231 cells. […] The cells were first incubated in serum-free conditions with ethanol or heptanol for 15 minutes. After this, the treatments (vehicle, 5 mM EGTA, 10^−6 M alendronate or zoledronate) were added for further 15 minutes. Lucifer yellow (10 μg/ml) (Sigma) was added for the final 1 minute after which the cells were washed with serum-free media to close the hemichannels again and fixed with 3% PFA-PBS. The cells were then stained with Hoechst (Sigma, 1 mg-ml stock prepared in ethanol and used in 1:800 dilution in PBS) to visualize nuclei, as previously described in Selander et al. (1996) Mol. Pharmacol. 50, 1127-1138. Samples were viewed with fluorescent microscope to examine the uptake of Lucifer yellow.
smiles,measurement,value
NCCCC(O)(P(=O)(O)O)P(=O)(O)O [alendronate],increased hemichannel-mediated cellular uptake of Lucifer yellow,not detected
